B1: WT: wild type human NgR1 expressed in COS-7 cells (protein, UniProt Q9BZR6 27-447, looked up)
Reticulon-4 receptor: CPGACVCYNEPKVTTSCPQQGLQAVPVGIPAASQRIFLHGNRISHVPAASFRACRNLTILWLHSNVLARIDAAAFTGLALLEQLDLSDNAQLRSVDPATFHGLGRLHTLHLDRCGLQELGPGLFRGLAALQYLYLQDNALQALPDDTFRDLGNLTHLFLHGNRISSVPERAFRGLHSLDRLLLHQNRVAHVHPHAFRDLGRLMTLYLFANNLSALPTEALAPLRALQYLRLNDNPWVCDCRARPLWAWLQKFRGSSSEVPCSLPQRLAGRDLKRLAANDLQGCAVATGPYHPIWTGRATDEEPLGLPKCCQPDAADKASVLEPGRPASAGNALKGRVPPGDSPPGNGSGPRHINDSPFGTLPGSAEPPLTAVRPEGSEPPGFPTSGPRRRPGCSRKNRTRSHCRLGQAGSGGGGTGDSEGS
B2: 108, 131: human NgR1 mutant, listed residues mutated to alanine (protein)
chain: CPGACVCYNEPKVTTSCPQQGLQAVPVGIPAASQRIFLHGNRISHVPAASFRACRNLTILWLHSNVLARIDAAAFTGLALLAQLDLSDNAQLRSVDPATFHGLGALHTLHLDRCGLQELGPGLFRGLAALQYLYLQDNALQALPDDTFRDLGNLTHLFLHGNRISSVPERAFRGLHSLDRLLLHQNRVAHVHPHAFRDLGRLMTLYLFANNLSALPTEALAPLRALQYLRLNDNPWVCDCRARPLWAWLQKFRGSSSEVPCSLPQRLAGRDLKRLAANDLQGCAVATGPYHPIWTGRATDEEPLGLPKCCQPDAADKASVLEPGRPASAGNALKGRVPPGDSPPGNGSGPRHINDSPFGTLPGSAEPPLTAVRPEGSEPPGFPTSGPRRRPGCSRKNRTRSHCRLGQAGSGGGGTGDSEGSGALPSLTCSLTPLGLALVLWTVLGPC
B3: 87, 89: human NgR1 mutant, listed residues mutated to alanine (protein)
chain: B2 chain with W61A, H63A, A82E, A105R
B4: 114, 117, 139: human NgR1 mutant, listed residues mutated to alanine (protein)
chain: B2 chain with A82E, D88A, Q91A, A105R, R113A
B5: 61, 108, 131: human NgR1 mutant, listed residues mutated to alanine (protein)
chain: B2 chain with R35A
B6: 95, 97, 122: human NgR1 mutant, listed residues mutated to alanine (protein)
chain: B2 chain with R69A, D71A, A82E, D96A, A105R
B7: 95, 97: human NgR1 mutant, listed residues mutated to alanine (protein)
chain: B2 chain with R69A, D71A, A82E, A105R
B8: 220, 223, 224: human NgR1 mutant, listed residues mutated to alanine (protein)
chain: B2 chain with A82E, A105R, H194A, R197A, D198A
B9: 256, 259, 284: human NgR1 mutant, listed residues mutated to alanine (protein)
chain: B2 chain with A82E, A105R, R230A, D233A, E258A
B10: 117, 119, 120: human NgR1 mutant, listed residues mutated to alanine (protein)
chain: B2 chain with A82E, Q91A, R93A, S94A, A105R
B11: 78, 81: human NgR1 mutant, listed residues mutated to alanine (protein)
chain: B2 chain with R52A, R55A, A82E, A105R
B12: 216, 218, 220: human NgR1 mutant, listed residues mutated to alanine (protein)
chain: B2 chain with A82E, A105R, H190A, H192A, H194A
B13: 237, 256, 284: human NgR1 mutant, listed residues mutated to alanine (protein)
chain: B2 chain with A82E, A105R, N211A, R230A, E258A
B14: 36, 38, 61: human NgR1 mutant, listed residues mutated to alanine (protein)
chain: B2 chain with E10A, K12A, R35A, A82E, A105R
B15: 63, 65, 87, 89: human NgR1 mutant, listed residues mutated to alanine (protein)
chain: B2 chain with F37A, H39A, W61A, H63A, A82E, A105R
B16: human NgR1 alanine mutant 189, 191, 211, 213, 237, 256, 259, 284 (receptor)
chain: B2 chain with A82E, A105R, R163A, S165A, Q185A, R187A, N211A, R230A, D233A, E258A
B17: human NgR1 alanine mutant 211, 213, 237, 256, 259, 284 (receptor)
chain: B2 chain with A82E, A105R, Q185A, R187A, N211A, R230A, D233A, E258A
B18: 89, 90: human NgR1 mutant, listed residues mutated to alanine (protein)
chain: B2 chain with H63A, S64A, A82E, A105R
B19: 256, 259: human NgR1 mutant, listed residues mutated to alanine (protein)
chain: B2 chain with A82E, A105R, R230A, D233A
B20: 237, 256, 259: human NgR1 mutant, listed residues mutated to alanine (protein)
chain: B2 chain with A82E, A105R, N211A, R230A, D233A

Where a chain is given by its changes, count along the chain named.

20 molecules from patent US20090111753A1, “Nogo-A Polypeptide Fragments, Variant Nogo Receptor-1 Polypeptides, and Uses Thereof” (Yale University, priority 2004, published 2009) can be followed below.

The subject of this data set is anti-NgR. The data set can be described thus: anti-NgR staining of NgR mutants. The data set is classed as binding. Set-up: key: ++: WT level; +: weaker than wild type; trace binding; −: no binding. The following applies: COS-7 cells expressing NgR mutants.
As for B1, the anti-NgR entry is listed as “++”.
In the case of B2, the anti-NgR entry is reported as “++”.
As for B3, the entry is “++”; as for B4, “++”; as for B5, “++”.
To B6 belongs “++”; to B7, “++”.
To B8 belongs “++”.
For B9, the anti-NgR result was “++”.
As for B10, the anti-NgR result is on record as “++”.
To B11 belongs “++”; to B12, “++”.
As for B13, the entry is “++”; as for B14, “++”.
To B15 belongs “++”; to B16, “++”; to B17, “++”.
With B18, the anti-NgR entry is “++”.
To B19 belongs “++”; to B20, “++”.
